# Reference: PubChem BioAssay AID758 (NMMLSC, 2007)
# About 110 (0.058%) of roughly 190,000 compounds were called active. Inconclusive results, whose numbers are uncertain, are shown with a selection of clear calls.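 Rule for the calls: active = fluorescent GTP binding to Rab7 beads changed by at least 20 points from the 100% baseline, either direction, mostly lower; inconclusive = compound itself probably fluorescent, or too few beads counted; inactive = the rest.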
# System: Rab7 GTPase wild type (dog), Bodipy-FL-GTP binding
# Assay: modulators of GTP binding to Rab7, primary screen, biochemical, wildtype, multiplex bead flow cytometry (AID 758);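 note: median green fluorescence of bound Bodipy-FL-GTP per Rab7 bead population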
# Settings: GST-Rab7 beads, fluorescent GTP binding, at 10 µM, actives lie on both sides, untreated = 100%, excess cold GTP = 0%
row,Compound,GTP binding activity (percent of control)
1,COc1ccc2ccccc2c1CN1CCN(Cc2ccccc2)CC1,inconclusive: 101%
2,CC1Cc2ccccc2N1C(=O)CSc1nnnn1Cc1ccccc1 (stereo not drawn),inactive: 101%
3,CC(=O)OCC#CCSc1nc2ccccc2n1C,inconclusive: 100%
4,Cc1ccccc1NC(=S)N(C)Cc1cn(C)c2ccccc12,inactive: 103%
5,COc1cccc(-c2nnc3sc(-c4ccco4)nn23)c1,inactive: 102%
6,COc1ccc(C(=O)C2CCCN(S(=O)(=O)C(C)C)C2)c(C)c1 (stereo not drawn),inactive: 98%
7,Cc1cc(=O)nc2c3ccccc3n(C(C)C(=O)Nc3c(F)c(F)c(F)c(F)c3F)n12 (stereo not drawn),inconclusive: 91%
8,CC(C)(O)C#Cc1ccc(C(=O)NCCc2ccc(S(N)(=O)=O)cc2)cc1,inconclusive: 91%
9,CCCCN(C(=O)CSc1cc(C)c2ccccc2n1)c1c(N)n(Cc2ccccc2)c(=O)[nH]c1=O,inconclusive: 99%
10,Cc1ccc(-c2nn(C)c(=O)c3ccccc23)cc1CNC(=O)c1ccco1,inactive: 106%
11,COc1ccc(-c2noc(CCC(=O)N3CCN(c4cc(C)ccc4C)CC3)n2)cc1,inactive: 85%
12,COc1ccccc1NC(=O)CN1CCN(C2c3ccccc3-c3ccccc32)CC1,inconclusive: 93%
13,Cc1ccc(S(=O)(=O)CCSc2nc(C)cc(C(F)(F)F)c2C#N)cc1,inconclusive: 116%
14,O=C(CSc1nnc(NC(=O)c2ccccc2Cl)s1)Nc1ccc2c(c1)oc1ccccc12,inconclusive: 86%
15,CN(Cc1cccnc1)C(=O)CC1C(=O)NCCN1Cc1ccc(-c2ccccc2)cc1 (stereo not drawn),inconclusive: 87%
16,N#C/C(=C\c1ccco1)c1nc2ccccc2s1,inactive: 96%
17,CCc1ccc(NC(=O)C(=O)NCc2ccccn2)cc1,inactive: 97%
18,O=C(Cc1ccccc1)NNC(=O)Nc1ccccc1,inactive: 104%
19,COc1ccc(NC(=O)CSc2ccc3c4c(cccc24)C(=O)c2ccccc2-3)cc1,inconclusive: 117%
20,CCC(C)n1c(/C=C/c2ccccc2)nc2ccccc21 (stereo not drawn),inconclusive: 102%

# Filtered by structure: those above containing a cyano group (two)
row,Compound,GTP binding activity (percent of control)
13,Cc1ccc(S(=O)(=O)CCSc2nc(C)cc(C(F)(F)F)c2C#N)cc1,inconclusive: 116%
16,N#C/C(=C\c1ccco1)c1nc2ccccc2s1,inactive: 96%

# (cont.)

row,Compound,GTP binding activity (percent of control)
1,COc1cc2[nH]c(=O)n(Cc3ccc(C(=O)NC4CCN(Cc5ccccc5)CC4)cc3)c(=O)c2cc1OC,inactive: 104%
2,Cc1ccccc1-c1nnc(NC(=O)c2ccc(N3C(=O)CCC3=O)cc2)s1,inactive: 104%
3,Cc1cc(C)cc(-c2nnc(SCC(=O)c3ccc4c(c3)OCCO4)o2)c1,inconclusive: 93%
4,O=C(CSc1nc2ccccc2c(=O)n1-c1ccccc1)NC(=O)CN1CCCC1=O,inconclusive: 96%
5,CC(C)c1ccc(NC(=S)NCc2ccc3c(c2)OCO3)cc1,inconclusive: 94%
6,O=C(O)c1ccccc1S(=O)(=O)Cc1ccccc1,inconclusive: 103%
7,CCn1c(SCC(=O)Nc2nc3ccccc3s2)nnc1-c1ccc(Br)cc1,inconclusive: 105%
8,Cc1ccc(NC(=O)C2CC(=O)N(c3ccc4c5c(cccc35)CC4)C2)cc1 (stereo not drawn),inconclusive: 92%
9,COc1ccc(/C=C2\CCCC3C2=NN(C(=O)c2scnc2C)C3c2ccc(OC)c(OC)c2)cc1OC (stereo not drawn),inactive: 88%
10,CCCOc1ccc(N2CC(C(=O)Nc3ccccc3C(=O)NCc3ccco3)CC2=O)cc1 (stereo not drawn),inconclusive: 92%
11,O=S(=O)(c1cccc(-c2nc3n(n2)Cc2ccccc2-3)c1)N1CCCCC1,inconclusive: 87%
12,CCn1c(SCC(=O)Nc2ccccc2N2CCCCC2)nc2c1c(=O)n(C)c(=O)n2C,inconclusive: 95%
13,Nc1nonc1NC(=O)CSc1ncccc1C(=O)O,inconclusive: 102%
14,Cc1cccc(N2C(=O)c3cccnc3C2=O)c1,inconclusive: 105%
15,COc1cccc(C(=O)CSc2nnc(CNc3nc(-c4ccccc4)cs3)n2C)c1,inconclusive: 96%
16,COc1ccc(NC(=O)/C(C#N)=C\c2ccc(OCc3ccc(C(=O)O)cc3)c(OC)c2)cc1,inconclusive: 91%
17,Cn1c(=O)n(Cc2ccccc2F)c(=O)c2c1nc1n2CCN1Cc1ccco1,inconclusive: 91%
18,O=C(Cn1cnc2cc([N+](=O)[O-])ccc2c1=O)NCCc1ccc(Cl)cc1,inconclusive: 89%
19,CCOc1ccc(C2=Nn3c(nnc3-c3ccccn3)SC2)cc1,inconclusive: 84%
20,Cc1cccc(C(=O)NNC(=O)c2ccccc2)c1,inconclusive: 97%

row,Compound,GTP binding activity (percent of control)
1,CN(C)c1cc[n+](CC(=O)Nc2ccc(Oc3ccccc3)cc2)cc1,inactive: 104%
2,O=C(c1ccccc1SCc1ccccc1)N1CCOCC1,inactive: 107%
3,CCOC(=O)c1ccc(NC(=O)CCc2ccc(CC)o2)cc1,inconclusive: 108%
4,CCOc1ccc(CCNC(=O)C2CCCN2C(=O)OCc2ccccc2)cc1OCC (stereo not drawn),inactive: 104%
5,CCn1nnnc1SCC(=O)N(C1CCCCC1)C1CCCCC1,inconclusive: 93%
6,C=CCNC(=O)c1ccc(OC2CCN(S(=O)(=O)N(C)C)CC2)cc1,inactive: 98%
7,O=C(C/C=N/OCc1c(Cl)cccc1Cl)c1cnc(-c2ccccc2)s1,inconclusive: 93%
8,O=C1c2ccccc2CCC12N=NCC2c1ccccc1 (stereo not drawn),inactive: 91%
9,O=C(Cc1ccc(Cl)cc1)Nc1ccc(SC(F)F)cc1,inactive: 95%
10,CNC(=S)N1CCN(c2nc3ccccc3s2)CC1,inactive: 96%
11,CC1(C)OC(=O)C(=Cc2ccc(-c3ccc(Cl)c(C(=O)O)c3)o2)C(=O)O1,inconclusive: 95%
12,Cn1c(-c2cnn(-c3ccccc3)c2-n2cccc2)n[nH]c1=S,inactive: 113%
13,OCC(CO)(CO)NCc1ccc(-c2ccccc2)cc1,inconclusive: 204%
14,O=C(O)c1cccc(-n2cccc2/C=C2/NC(=O)N(c3ccc(Cl)cc3)C2=O)c1,inactive: 88%
15,COC(=O)c1cc(-c2ccccc2)sc1NC(=O)CN1C(=O)c2ccccc2C1=O,inconclusive: 105%
16,O=C(/C=C/c1ccc(Cl)cc1Cl)NCCSc1ccccc1,inconclusive: 95%
17,NC(=O)c1sc(=S)n2c1[nH]c(=O)c1sccc12,inconclusive: 88%
18,O=C(CCCCCNc1nc(=S)[nH]c2ccccc12)N1CCN(c2ccccn2)CC1,inactive: 94%

# 3 structures from above, ordered by heavy-atom count, high to low:
row,Compound,GTP binding activity (percent of control)
15,COC(=O)c1cc(-c2ccccc2)sc1NC(=O)CN1C(=O)c2ccccc2C1=O,inconclusive: 105%
14,O=C(O)c1cccc(-n2cccc2/C=C2/NC(=O)N(c3ccc(Cl)cc3)C2=O)c1,inactive: 88%
17,NC(=O)c1sc(=S)n2c1[nH]c(=O)c1sccc12,inconclusive: 88%
